The record followed here is the supplement of paper PMC11006884.

Chains of the proteins cited; added tags and fusions are not shown. Lines headed by an entry give the natural chain unless they say otherwise; changes in a name come on top.
UniProt Q13885, whole entry, looked up: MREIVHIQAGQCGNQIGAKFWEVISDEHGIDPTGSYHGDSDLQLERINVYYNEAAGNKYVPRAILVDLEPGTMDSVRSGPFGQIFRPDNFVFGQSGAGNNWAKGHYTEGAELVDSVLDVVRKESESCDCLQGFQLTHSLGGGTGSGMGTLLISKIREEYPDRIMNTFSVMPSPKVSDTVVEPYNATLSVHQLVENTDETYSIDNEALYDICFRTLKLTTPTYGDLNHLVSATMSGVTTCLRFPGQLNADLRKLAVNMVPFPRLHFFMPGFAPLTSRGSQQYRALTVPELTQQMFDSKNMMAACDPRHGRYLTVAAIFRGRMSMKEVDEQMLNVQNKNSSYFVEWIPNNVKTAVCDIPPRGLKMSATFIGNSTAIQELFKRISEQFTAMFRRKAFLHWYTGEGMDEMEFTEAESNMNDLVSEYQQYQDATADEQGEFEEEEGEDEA
UniProt Q14669: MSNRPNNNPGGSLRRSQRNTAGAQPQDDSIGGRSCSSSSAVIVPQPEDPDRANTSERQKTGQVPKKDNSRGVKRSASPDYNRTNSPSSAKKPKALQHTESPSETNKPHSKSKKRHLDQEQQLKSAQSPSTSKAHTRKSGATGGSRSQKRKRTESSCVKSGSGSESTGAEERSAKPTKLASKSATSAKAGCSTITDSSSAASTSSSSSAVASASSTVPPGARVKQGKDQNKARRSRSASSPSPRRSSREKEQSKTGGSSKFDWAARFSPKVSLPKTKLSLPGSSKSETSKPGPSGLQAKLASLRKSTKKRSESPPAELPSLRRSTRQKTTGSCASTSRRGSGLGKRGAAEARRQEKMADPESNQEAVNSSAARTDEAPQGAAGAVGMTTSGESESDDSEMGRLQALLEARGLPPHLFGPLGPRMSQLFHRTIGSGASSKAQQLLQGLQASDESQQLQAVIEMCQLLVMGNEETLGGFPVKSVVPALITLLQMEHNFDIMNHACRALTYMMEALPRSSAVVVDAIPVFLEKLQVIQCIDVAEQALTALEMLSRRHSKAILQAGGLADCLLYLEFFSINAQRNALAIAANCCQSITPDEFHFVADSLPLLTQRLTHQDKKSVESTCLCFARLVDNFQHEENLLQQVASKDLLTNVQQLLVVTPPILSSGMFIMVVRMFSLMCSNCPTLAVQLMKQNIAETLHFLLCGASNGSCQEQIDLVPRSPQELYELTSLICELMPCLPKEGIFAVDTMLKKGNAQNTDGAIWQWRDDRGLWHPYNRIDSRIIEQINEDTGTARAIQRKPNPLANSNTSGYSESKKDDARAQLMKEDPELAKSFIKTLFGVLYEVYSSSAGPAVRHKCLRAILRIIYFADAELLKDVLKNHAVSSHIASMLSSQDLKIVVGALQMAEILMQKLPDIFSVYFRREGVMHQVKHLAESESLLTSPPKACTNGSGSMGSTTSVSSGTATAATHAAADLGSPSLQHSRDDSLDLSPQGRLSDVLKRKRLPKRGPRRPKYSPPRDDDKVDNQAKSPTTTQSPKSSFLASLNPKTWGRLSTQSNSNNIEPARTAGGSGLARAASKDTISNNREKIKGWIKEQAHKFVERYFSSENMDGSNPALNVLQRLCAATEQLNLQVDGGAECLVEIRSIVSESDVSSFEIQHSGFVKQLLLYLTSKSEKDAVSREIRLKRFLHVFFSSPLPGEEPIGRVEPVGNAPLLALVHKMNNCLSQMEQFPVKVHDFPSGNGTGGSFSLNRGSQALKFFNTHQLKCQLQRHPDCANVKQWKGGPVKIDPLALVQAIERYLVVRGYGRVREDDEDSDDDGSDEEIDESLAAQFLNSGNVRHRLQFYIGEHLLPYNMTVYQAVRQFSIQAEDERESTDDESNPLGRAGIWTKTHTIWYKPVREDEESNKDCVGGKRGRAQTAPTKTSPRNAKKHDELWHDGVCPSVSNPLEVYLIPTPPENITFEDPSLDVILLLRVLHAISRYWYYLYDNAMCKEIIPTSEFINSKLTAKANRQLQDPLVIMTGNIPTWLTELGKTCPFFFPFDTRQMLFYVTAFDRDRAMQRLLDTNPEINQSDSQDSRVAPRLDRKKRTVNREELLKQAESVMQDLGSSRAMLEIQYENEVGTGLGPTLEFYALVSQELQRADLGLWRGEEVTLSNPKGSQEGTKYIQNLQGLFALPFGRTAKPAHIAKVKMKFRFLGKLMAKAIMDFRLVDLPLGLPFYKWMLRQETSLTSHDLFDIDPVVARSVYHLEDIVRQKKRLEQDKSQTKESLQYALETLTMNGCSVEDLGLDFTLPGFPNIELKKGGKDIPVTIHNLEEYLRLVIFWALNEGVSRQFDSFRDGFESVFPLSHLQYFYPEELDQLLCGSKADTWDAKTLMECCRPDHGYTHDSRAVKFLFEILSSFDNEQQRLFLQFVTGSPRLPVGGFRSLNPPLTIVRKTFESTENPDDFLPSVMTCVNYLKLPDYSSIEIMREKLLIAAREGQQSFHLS
UniProt Q14160: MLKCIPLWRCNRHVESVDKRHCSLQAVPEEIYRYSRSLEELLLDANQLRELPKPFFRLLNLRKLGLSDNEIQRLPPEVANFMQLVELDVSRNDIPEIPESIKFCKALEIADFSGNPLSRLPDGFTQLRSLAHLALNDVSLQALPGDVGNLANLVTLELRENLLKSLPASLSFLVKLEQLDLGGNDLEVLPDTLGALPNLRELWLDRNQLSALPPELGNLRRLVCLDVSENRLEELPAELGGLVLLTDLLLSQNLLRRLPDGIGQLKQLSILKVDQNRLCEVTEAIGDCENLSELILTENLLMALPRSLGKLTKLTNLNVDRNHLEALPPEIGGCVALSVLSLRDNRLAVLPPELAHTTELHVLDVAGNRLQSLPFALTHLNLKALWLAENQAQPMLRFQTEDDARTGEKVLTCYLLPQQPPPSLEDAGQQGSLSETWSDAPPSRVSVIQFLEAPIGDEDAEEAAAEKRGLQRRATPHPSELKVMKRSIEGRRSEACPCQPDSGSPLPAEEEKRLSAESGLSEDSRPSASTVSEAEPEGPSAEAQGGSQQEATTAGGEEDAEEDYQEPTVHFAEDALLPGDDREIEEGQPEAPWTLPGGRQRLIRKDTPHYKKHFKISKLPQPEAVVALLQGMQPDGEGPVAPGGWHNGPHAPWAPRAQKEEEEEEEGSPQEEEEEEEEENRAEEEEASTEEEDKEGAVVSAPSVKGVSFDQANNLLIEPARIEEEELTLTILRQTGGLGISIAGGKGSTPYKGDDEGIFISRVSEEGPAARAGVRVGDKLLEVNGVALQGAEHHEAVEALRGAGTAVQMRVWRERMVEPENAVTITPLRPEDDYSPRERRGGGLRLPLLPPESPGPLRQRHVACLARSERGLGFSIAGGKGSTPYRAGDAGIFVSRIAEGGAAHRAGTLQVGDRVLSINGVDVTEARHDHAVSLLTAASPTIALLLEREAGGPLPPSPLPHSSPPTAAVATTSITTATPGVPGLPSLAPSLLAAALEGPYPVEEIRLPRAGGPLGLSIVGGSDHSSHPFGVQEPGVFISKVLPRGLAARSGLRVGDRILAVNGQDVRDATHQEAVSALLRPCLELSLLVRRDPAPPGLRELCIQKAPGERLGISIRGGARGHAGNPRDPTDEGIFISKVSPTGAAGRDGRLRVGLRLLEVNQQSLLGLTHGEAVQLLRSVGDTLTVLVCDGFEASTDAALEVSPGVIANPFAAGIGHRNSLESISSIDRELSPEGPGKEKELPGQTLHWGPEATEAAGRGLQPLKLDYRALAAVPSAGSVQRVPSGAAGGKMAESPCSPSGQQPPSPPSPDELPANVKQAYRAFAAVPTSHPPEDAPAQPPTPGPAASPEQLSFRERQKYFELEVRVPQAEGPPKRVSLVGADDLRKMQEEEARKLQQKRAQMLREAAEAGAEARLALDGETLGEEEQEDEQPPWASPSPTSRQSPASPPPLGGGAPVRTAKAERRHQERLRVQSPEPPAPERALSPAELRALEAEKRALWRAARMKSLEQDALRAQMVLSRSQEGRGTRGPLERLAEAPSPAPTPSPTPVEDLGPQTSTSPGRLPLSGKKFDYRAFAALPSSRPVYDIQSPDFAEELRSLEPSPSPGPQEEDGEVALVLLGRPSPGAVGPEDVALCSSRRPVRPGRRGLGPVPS
UniProt Q14012: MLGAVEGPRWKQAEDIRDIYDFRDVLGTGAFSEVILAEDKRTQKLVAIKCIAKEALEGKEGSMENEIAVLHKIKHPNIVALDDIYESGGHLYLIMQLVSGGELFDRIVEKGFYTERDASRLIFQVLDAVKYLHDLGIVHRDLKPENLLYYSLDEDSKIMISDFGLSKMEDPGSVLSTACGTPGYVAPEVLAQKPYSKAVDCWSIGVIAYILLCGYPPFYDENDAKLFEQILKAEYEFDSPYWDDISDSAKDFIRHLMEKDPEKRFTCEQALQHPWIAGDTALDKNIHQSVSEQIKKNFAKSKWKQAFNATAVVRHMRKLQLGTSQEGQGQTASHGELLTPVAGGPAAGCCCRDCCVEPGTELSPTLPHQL
UniProt Q14674: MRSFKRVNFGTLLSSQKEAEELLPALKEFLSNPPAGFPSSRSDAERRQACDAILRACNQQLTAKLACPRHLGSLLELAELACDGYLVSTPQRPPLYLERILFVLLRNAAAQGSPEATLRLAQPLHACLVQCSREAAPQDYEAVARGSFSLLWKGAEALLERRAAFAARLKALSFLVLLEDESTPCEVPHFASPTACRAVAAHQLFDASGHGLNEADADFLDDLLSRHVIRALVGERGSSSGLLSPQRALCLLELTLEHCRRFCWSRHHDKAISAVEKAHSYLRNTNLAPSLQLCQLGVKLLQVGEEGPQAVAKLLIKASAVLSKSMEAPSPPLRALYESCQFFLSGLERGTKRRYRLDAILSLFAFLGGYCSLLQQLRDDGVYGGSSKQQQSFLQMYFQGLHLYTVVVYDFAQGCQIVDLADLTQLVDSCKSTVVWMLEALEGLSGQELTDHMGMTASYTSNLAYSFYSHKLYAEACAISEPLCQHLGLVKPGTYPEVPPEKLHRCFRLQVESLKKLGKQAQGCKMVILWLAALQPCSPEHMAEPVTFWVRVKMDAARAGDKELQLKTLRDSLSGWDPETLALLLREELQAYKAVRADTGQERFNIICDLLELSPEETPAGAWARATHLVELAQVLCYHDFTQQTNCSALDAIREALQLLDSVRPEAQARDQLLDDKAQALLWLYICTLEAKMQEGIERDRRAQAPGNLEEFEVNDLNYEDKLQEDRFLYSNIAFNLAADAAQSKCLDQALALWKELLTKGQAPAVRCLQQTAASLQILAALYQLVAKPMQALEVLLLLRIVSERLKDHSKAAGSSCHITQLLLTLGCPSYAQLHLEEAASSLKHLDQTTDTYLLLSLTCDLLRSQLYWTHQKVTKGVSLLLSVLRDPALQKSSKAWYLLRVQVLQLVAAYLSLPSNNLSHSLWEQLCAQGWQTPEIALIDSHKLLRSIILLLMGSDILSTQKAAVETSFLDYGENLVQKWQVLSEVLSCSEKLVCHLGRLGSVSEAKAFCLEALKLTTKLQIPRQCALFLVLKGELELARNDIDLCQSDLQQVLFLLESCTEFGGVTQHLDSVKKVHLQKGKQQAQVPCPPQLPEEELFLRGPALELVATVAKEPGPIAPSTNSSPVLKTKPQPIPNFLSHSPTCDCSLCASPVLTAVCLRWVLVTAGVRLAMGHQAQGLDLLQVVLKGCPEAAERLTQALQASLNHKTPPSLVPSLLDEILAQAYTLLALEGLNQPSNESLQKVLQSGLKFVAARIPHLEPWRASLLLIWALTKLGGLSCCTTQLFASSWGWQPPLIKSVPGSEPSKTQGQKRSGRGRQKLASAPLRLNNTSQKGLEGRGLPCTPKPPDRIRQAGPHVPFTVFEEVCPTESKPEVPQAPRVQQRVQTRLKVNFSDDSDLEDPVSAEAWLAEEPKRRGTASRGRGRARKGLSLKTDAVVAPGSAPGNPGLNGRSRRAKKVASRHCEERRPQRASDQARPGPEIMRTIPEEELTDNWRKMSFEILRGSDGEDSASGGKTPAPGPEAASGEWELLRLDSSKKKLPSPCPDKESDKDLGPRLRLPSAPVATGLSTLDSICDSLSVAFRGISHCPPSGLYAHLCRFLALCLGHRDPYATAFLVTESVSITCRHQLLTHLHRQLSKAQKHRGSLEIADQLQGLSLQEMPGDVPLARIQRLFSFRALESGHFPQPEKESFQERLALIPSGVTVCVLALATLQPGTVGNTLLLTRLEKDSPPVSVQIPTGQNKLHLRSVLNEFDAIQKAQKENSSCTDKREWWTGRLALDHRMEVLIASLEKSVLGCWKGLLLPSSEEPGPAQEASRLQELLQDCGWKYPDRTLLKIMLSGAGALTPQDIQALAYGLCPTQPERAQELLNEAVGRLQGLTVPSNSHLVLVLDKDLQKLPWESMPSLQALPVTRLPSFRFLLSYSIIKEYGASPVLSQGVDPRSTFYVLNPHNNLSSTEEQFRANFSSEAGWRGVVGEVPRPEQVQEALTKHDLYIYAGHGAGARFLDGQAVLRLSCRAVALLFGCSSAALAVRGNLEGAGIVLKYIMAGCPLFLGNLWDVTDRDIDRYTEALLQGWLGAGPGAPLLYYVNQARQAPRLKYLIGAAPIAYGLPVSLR

The targets with a hit were mostly taken out for another list; the other results follow. The data scatter; read single values as rough. This is a selection; strong and weak results do not stand in their true shares.

Compound in the test: COC(=O)/C=C/c1ccccc1 [methyl cinnamate]
As to the kind of experiment: log2 ratio of iodoacetamide-alkyne labeling of the cysteine site, DMSO over compound (competition); higher = stronger covalent engagement of the cysteine by the compound, active = 1 or more. To be noted: 500 µM; treatment time 1 h; system: HEK293T cell lysate. The essentials:
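Three replicates, each with duplicate channels, were prepared from HEK293T lysate (2 mg/mL) treated with vehicle or electrophile at 500 µM for 1 h at ambient temperature. Iodoacetamide alkyne was then applied for 1 h, and samples were clicked to sCIP-TMT reagents, pooled, trypsin-digested overnight at 37 °C, enriched on streptavidin, acid-eluted and analysed on Orbitrap Eclipse LC-MS/MS with FAIMS, with FragPipe quantification. The log2 competition ratio per cysteine is the mean control-channel divided by the mean compound-channel reporter intensity. Cysteines quantified in only one replicate were left out.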
Consider UniProt Q13885_C12, for which the “log2 ratio of iodoacetamide-alkyne labeling” value (“log2 ratio” for short) is inactive: 0.201.

For UniProt Q14141_C42, the “log2 ratio” value is inactive: -0.241. The result for TRIM25 C70 (UniProt Q14258) reads inactive: 0.0289; that for KIF22 C575 (UniProt Q14807), inactive: -0.099; that for FKBP8 C295 (UniProt Q14318), inactive: -0.0199.

Take FHL1 C10 (UniProt Q13642): the “log2 ratio” value was inactive: -0.044. Take PPP2R5D C17 (UniProt Q14738): the “log2 ratio” value was inactive: 0.551. The result for PDCD11 C151 (UniProt Q14690) reads inactive: 0.264; that for BOP1 C404 (UniProt Q14137), inactive: 0.072; that for SPTAN1 C2233 (UniProt Q13813), inactive: 0.0554. The result for RIPK1 C325 (UniProt Q13546) reads inactive: 0.229; that for KPNB1 C826 (UniProt Q14974), inactive: 0.588.

For TRIP12 C332 (UniProt Q14669), the “log2 ratio” value was inactive: 0.418. Consider MPP2 C334 (UniProt Q14168), for which the “log2 ratio” value is inactive: 0.115. The result for SCRIB C1082 (UniProt Q14160) reads inactive: -0.18; that for DCTN2 C256 (UniProt Q13561), inactive: 0.262. Under WTAP C270 (UniProt Q15007) stands inactive: 0.61; under NCAPH C402 (UniProt Q15003), inactive: 0.237. The result for TTLL12 C126 (UniProt Q14166) reads inactive: -0.118.

SLBP C15 (UniProt Q14493): the “log2 ratio” value was inactive: 0.162. Under CAMK1 C354 (UniProt Q14012) stands inactive: -0.0181; under NUMA1 C299 (UniProt Q14980), inactive: 0.0666; under DYNC1H1 C3089 (UniProt Q14204), inactive: 0.17.

Turning to STIM1 C49 (UniProt Q13586), the “log2 ratio” value is inactive: 0.279.

In the case of NUMA1 C961 (UniProt Q14980), the “log2 ratio” value is inactive: 0.204.

For the target MCM6 C242 (UniProt Q14566), the “log2 ratio” value was inactive: 0.427. The result for DIP2A C252 (UniProt Q14689) reads inactive: 0.305; that for UniProt Q13620_C102, inactive: 0.0992. The result for UniProt Q14562_C123 reads inactive: 0.243. In the case of GNL2 C362 (UniProt Q13823), the “log2 ratio” value is inactive: -0.182. The result for USP10 C209 (UniProt Q14694) reads inactive: -0.543; that for ESPL1 C1369 (UniProt Q14674), inactive: 0.00537; that for RBM39 C478 (UniProt Q14498), inactive: -0.0233.

On to ITPR1 C530 (UniProt Q14643), for which the “log2 ratio” value is inactive: 0.129.

As to FHL3 C10 (UniProt Q13643), the “log2 ratio” value is inactive: 0.0675. Under ZMYM3 C1106 (UniProt Q14202) stands inactive: -0.0319; under POLA2 C198 (UniProt Q14181), inactive: 0.223.
